Results as given in PubChem BioAssay AID256 (DTP/NCI, 2004).
The list shows only some results of the screen, not a fair sample: it is rich in T/C values a quarter to a half above the control, in often repeated tests (any T/C) and in doses without a T/C. Further doses and runs are listed elsewhere. T/C is the treated group as % of the vehicle group. Some entries give survivors of the animals treated and no T/C: the source holds a T/C of zero for them, seemingly a mark for toxic or unscored doses. Some doses without a T/C left all or most animals alive at the check, yet need not have been tolerated: survival well below the control is almost never listed, so the zero probably covers shortened survival too. Survivors were counted at the toxicity check, usually on the fifth day, unless a day is given; later deaths do not show. Schedules are NCI's codes, read here as Q, the interval in days (D) or hours (H), X, the number of doses. Some structures stand for samples that the source files as different forms (salt, stereo form or complex); doses refer to the form tested. Additions like (4×) count equal records among those shown. Some entries hold several experiments; the values are given in rising order. Some schedules carry Z or #; the key to these is not given. For survival time, this PubChem deposit counts one and a half times the control or more as active, and values a quarter to a half above the control carry no call in these data; other NCI protocols may use other cut-offs.

Test system: CD2F1 mice, L1210 leukemia ip, survival T/C
Test: NCI In Vivo Anticancer Drug Screen. Data for tumor model L1210 Leukemia (intraperitoneal) in CD2F1 (CDF1) mice
Conditions: higher T/C = longer survival
How it was run: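 Each value reflects a quotient of treated over vehicle control outcomes in mice with a transplanted tumor.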

[1] = T/C endpoint: mean survival time, dose: 400.0 mg/kg/injection, schedule: Q01DX009 (ip), vehicle: saline with Tween-80
[2] = T/C endpoint: mean survival time, dose: 400.0 mg/kg/injection, schedule: Q04DX003 (ip), vehicle: saline with Tween-80
[3] = T/C endpoint: mean survival time, dose: 200.0 mg/kg/injection, schedule: Q01DX009 (ip), vehicle: saline with Tween-80
[4] = T/C endpoint: mean survival time, dose: 100.0 mg/kg/injection, schedule: Q04DX003 (ip), vehicle: saline with Tween-80
[5] = T/C endpoint: mean survival time, dose: 200.0 mg/kg/injection, schedule: Q04DX003 (ip), vehicle: saline with Tween-80
[6] = T/C endpoint: mean survival time, dose: 100.0 mg/kg/injection, schedule: Q04DX003 (ip), vehicle: saline
[7] = T/C endpoint: mean survival time, dose: 200.0 mg/kg/injection, schedule: Q04DX003 (ip), vehicle: saline
[8] = T/C endpoint: mean survival time, dose: 400.0 mg/kg/injection, schedule: Q04DX003 (ip), vehicle: saline

For `CN(C)c1nc(N(C)C)nc(N(C)C)n1`, the survivor count [1] was 0 of 6, the survivor count (T/C endpoint: mean survival time, dose: 800.0 mg/kg/injection, schedule: Q01DX001 (ip), vehicle: saline with Tween-80) was 0 of 6 and the survivor count (T/C endpoint: median survival time, dose: 64.0 mg/kg/injection, schedule: Q03HX008 (ip), vehicle: Klucel (hydroxypropylcellulose) (HPC)) was 10 of 10. The survivor count (T/C endpoint: median survival time, dose: 64.0 mg/kg/injection, schedule: Q03HX016 (ip), vehicle: Klucel (hydroxypropylcellulose) (HPC)) was 10 of 10, the survivor count (T/C endpoint: median survival time, dose: 64.0 mg/kg/injection, schedule: Q03HX024 (ip), vehicle: Klucel (hydroxypropylcellulose) (HPC)) was 10 of 10 and the survivor count (T/C endpoint: median survival time, dose: 128.0 mg/kg/injection, schedule: Q03HX008 (ip), vehicle: Klucel (hydroxypropylcellulose) (HPC)) was 0 of 10. For the same compound, the survivor count (T/C endpoint: median survival time, dose: 128.0 mg/kg/injection, schedule: Q03HX016 (ip), vehicle: Klucel (hydroxypropylcellulose) (HPC)) was 0 of 10, the survivor count (T/C endpoint: median survival time, dose: 128.0 mg/kg/injection, schedule: Q03HX024 (ip), vehicle: Klucel (hydroxypropylcellulose) (HPC)) was 0 of 10 and the survivor count (T/C endpoint: median survival time, dose: 256.0 mg/kg/injection, schedule: Q01DX009 (ip), vehicle: Klucel (hydroxypropylcellulose) (HPC)) was 7 of 10. For the same compound, the survivor count (T/C endpoint: median survival time, dose: 512.0 mg/kg/injection, schedule: Q01DX001 (ip), vehicle: Klucel (hydroxypropylcellulose) (HPC)) was 10 of 10, the survivor count (T/C endpoint: median survival time, dose: 512.0 mg/kg/injection, schedule: Q01DX009 (ip), vehicle: Klucel (hydroxypropylcellulose) (HPC)) was 0 of 10 and the survivor count (T/C endpoint: median survival time, dose: 512.0 mg/kg/injection, schedule: Q04DX003 (ip), vehicle: Klucel (hydroxypropylcellulose) (HPC)) was 8 of 10. The survivor count (T/C endpoint: median survival time, dose: 512.0 mg/kg/injection, schedule: Q08DX002 (ip), vehicle: Klucel (hydroxypropylcellulose) (HPC)) was 8 of 10, the survivor count (T/C endpoint: median survival time, dose: 1024.0 mg/kg/injection, schedule: Q01DX001 (ip), vehicle: Klucel (hydroxypropylcellulose) (HPC)) was 2 of 10 and the survivor count (T/C endpoint: median survival time, dose: 1024.0 mg/kg/injection, schedule: Q04DX003 (ip), vehicle: Klucel (hydroxypropylcellulose) (HPC)) was 0 of 10. For the same compound, the survivor count (T/C endpoint: median survival time, dose: 1024.0 mg/kg/injection, schedule: Q08DX002 (ip), vehicle: Klucel (hydroxypropylcellulose) (HPC)) was 0 of 10.

For `C[C@]12CCCC[C@@H]1CC[C@@H]1[C@@H]2[C@@H](O)C[C@]2(C)[C@@H](O)CC[C@@H]12`, the survivor count [2] was 3 of 6.

With `CC(C)CN1CCOCC1` the survivor count [3] was 0 of 6 and the survivor count [2] was 0 of 6.

In the case of `CC(CC(C(=O)O)C(=O)O)C(=O)O` (stereo not given), the survivor count (T/C endpoint: mean survival time, dose: 200.0 mg/kg/injection, schedule: Q01DX009 (ip), vehicle: water) is reported as 6 of 6.

For `CCCCCC(C[N+](C)(C)C)C(O)/C=C\c1ccccc1` (stereo not given), the survivor count [4] was 0 of 6, the survivor count [5] was 0 of 6 and the survivor count [2] was 0 of 6.

With `C1CCC(C2CCCC[N-]2)[N-]C1.O=C(O)C1CCC[N-]1.[Cl][Pt]` (stereo not given) the survivor count (T/C endpoint: median survival time, dose: 320.0 mg/kg/injection, schedule: Q04DX003 (ip), vehicle: saline) was 4 of 4.

In the case of `N#Cc1c(-c2ccc(F)cc2)c(-c2ccc(F)cc2)nn(CCO)c1=O`, the T/C (T/C endpoint: median survival time, dose: 120.0 mg/kg/injection, schedule: Q01DX005 (ip), vehicle: water) is reported as 125 % of control, the T/C (T/C endpoint: median survival time, dose: 200.0 mg/kg/injection, schedule: Q01DX005 (ip), vehicle: distilled water + Tween-80) is reported as 130 % of control and the T/C (T/C endpoint: median survival time, dose: 300.0 mg/kg/injection, schedule: Q01DX005 (ip), vehicle: distilled water + Tween-80) is reported as 144 % of control. For the same compound, the T/C (T/C endpoint: median survival time, dose: 333.33 mg/kg/injection, schedule: Q01DX005 (ip), vehicle: water) was 125 % of control, the survivor count (T/C endpoint: median survival time, dose: 555.5 mg/kg/injection, schedule: Q01DX005 (ip), vehicle: water) was 3 of 6 and the T/C (T/C endpoint: median survival time, dose: 555.55 mg/kg/injection, schedule: Q01DX005 (ip), vehicle: water) was 125 % of control. The T/C (T/C endpoint: median survival time, dose: 741.13 mg/kg/injection, schedule: Q01DX005 (ip), vehicle: water) was 135 % of control and the survivor count (T/C endpoint: median survival time, dose: 833.3 mg/kg/injection, schedule: Q01DX005 (ip), vehicle: distilled water + Tween-80) was 3 of 6.

For `Cc1ccc(N/N=C/C(=O)O)cc1`, the survivor count (T/C endpoint: mean survival time, dose: 200.0 mg/kg/injection, schedule: Q04DX003 (ip), vehicle: other) was 6 of 6.

In the case of `Cn1c(=O)c2c(ncn2C(C=O)OC(C=O)CO)n(C)c1=O` (stereo not given), the survivor count (T/C endpoint: mean survival time, dose: 200.0 mg/kg/injection, schedule: Q01DX005 (ip), vehicle: water) is reported as 3 of 6.

For `Cc1c(NC(=O)Nc2ccc(C3=NCCCN3)cc2)cccc1NC(=O)Nc1ccc(C2=NCCCN2)cc1`, the survivor count (T/C endpoint: mean survival time, dose: 62.0 mg/kg/injection, schedule: Q01DX Z (ip), vehicle: water) was 0 of 6.

In the case of `O=C1C(O)=C(c2ccccc2C(=O)O)C(=O)C(O)=C1c1ccccc1C(=O)O`, the survivor count [3] is reported as 1 of 3 and the survivor count [1] is reported as 0 of 3.

`CC(=O)O[C@@H]1C[C@H](C)CC[C@H]1C(C)C` was tested, and the survivor count [2] was 6 of 6.

With `CCN(CC)C(=O)c1ccc[n+](CC(=O)Nc2ccc(Cl)cc2)c1` the survivor count [4] was 2 of 6, the survivor count [5] was 0 of 6 and the survivor count [2] was 0 of 6.

In the case of `[Cl][Pt]([Cl])([Cl])[Cl]`, the survivor count (T/C endpoint: mean survival time, dose: 25.0 mg/kg/injection, schedule: Q01DX009 (ip), vehicle: saline) is reported as 5 of 6, the survivor count (T/C endpoint: mean survival time, dose: 50.0 mg/kg/injection, schedule: Q01DX009 (ip), vehicle: saline) is reported as 0 of 6, 2 of 6, 3 of 6 and the survivor count (T/C endpoint: mean survival time, dose: 50.0 mg/kg/injection, schedule: Q01DX009 (ip), vehicle: suspension in saline) is reported as 0 of 6. For the same compound, the survivor count (T/C endpoint: mean survival time, dose: 100.0 mg/kg/injection, schedule: Q01DX009 (ip), vehicle: saline) was 0 of 6 (2×), the survivor count [6] was 0 of 6 (2×) and the survivor count (T/C endpoint: mean survival time, dose: 200.0 mg/kg/injection, schedule: Q01DX009 (ip), vehicle: saline) was 0 of 6 (2×). The survivor count [7] was 0 of 6 (2×), the survivor count (T/C endpoint: mean survival time, dose: 400.0 mg/kg/injection, schedule: Q01DX009 (ip), vehicle: saline) was 0 of 6 (2×) and the survivor count [8] was 0 of 6 (2×).

`Cc1ccc(S/C=C/C(=O)Nc2ccccc2)cc1` was tested, and the survivor count [5] was 6 of 6 and the survivor count [2] was 6 of 6.

For `Oc1ccc(SCc2ccc(NCc3ccccc3)cc2)cc1`, the survivor count (T/C endpoint: mean survival time, dose: 200.0 mg/kg/injection, schedule: Q01DX009 (ip), vehicle: DMSO) was 2 of 6 and the survivor count (T/C endpoint: mean survival time, dose: 400.0 mg/kg/injection, schedule: Q01DX009 (ip), vehicle: DMSO) was 0 of 6.

`ClCCCN1CCN(CCCCl)CC1` was tested, and the survivor count (T/C endpoint: mean survival time, dose: 200.0 mg/kg/injection, schedule: Q01DX009 (ip), vehicle: distilled water + alcohol) was 0 of 6.

In the case of `CC(C)N1CCc2cc3c(cc2C1)OCO3`, the survivor count (T/C endpoint: mean survival time, dose: 150.0 mg/kg/injection, schedule: Q01DX001 (ip), vehicle: saline) is reported as 2 of 6, the survivor count (T/C endpoint: mean survival time, dose: 200.0 mg/kg/injection, schedule: Q01DX001 (ip), vehicle: saline) is reported as 0 of 6 and the survivor count (T/C endpoint: mean survival time, dose: 300.0 mg/kg/injection, schedule: Q01DX001 (ip), vehicle: saline) is reported as 0 of 6. For the same compound, the survivor count (T/C endpoint: mean survival time, dose: 400.0 mg/kg/injection, schedule: Q01DX001 (ip), vehicle: saline) was 0 of 6.

`CCN(CC)CCNc1cc(C)nc(/N=C(\N)Nc2ccc(OCc3ccccc3)cc2)n1` was tested, and the survivor count [4] was 1 of 6, the survivor count [5] was 0 of 6 and the survivor count [2] was 0 of 6.

For `C[n+]1c(/C=C/c2c(O)ccc3ccccc23)ccc2ccccc21`, the survivor count (T/C endpoint: mean survival time, dose: 100.0 mg/kg/injection, schedule: Q01DX009 (ip), vehicle: saline with Tween-80) was 4 of 6, the survivor count [3] was 3 of 6 and the survivor count [1] was 0 of 6.

For `CN(Cc1cnc2nc(N)nc(N)c2n1)c1ccc(C(=O)NC(CCC(=O)O)C(=O)NCC(=O)O)cc1` (stereo not given), the T/C (T/C endpoint: mean survival time, dose: 25.0 mg/kg/injection, schedule: Q01DX009 (ip), vehicle: sodium bicarbonate) was 137 % of control, the T/C (T/C endpoint: mean survival time, dose: 50.0 mg/kg/injection, schedule: Q01DX009 (ip), vehicle: sodium bicarbonate) was 141 % of control and the T/C (T/C endpoint: mean survival time, dose: 75.0 mg/kg/injection, schedule: Q01DX009 (ip), vehicle: sodium bicarbonate) was 137 % of control. The T/C (T/C endpoint: mean survival time, dose: 100.0 mg/kg/injection, schedule: Q01DX009 (ip), vehicle: sodium bicarbonate) was 135 % of control and the T/C (T/C endpoint: mean survival time, dose: 125.0 mg/kg/injection, schedule: Q01DX009 (ip), vehicle: sodium bicarbonate) was 129 % of control.

With `CC(=O)Nc1ccc([N+](=O)[O-])cc1[N+](=O)[O-]` the survivor count [2] was 4 of 6.

With `CC(C)=CC(C)OC(=O)N(C)C` (stereo not given) the survivor count [2] was 1 of 3.

`CCOC1CC2c3ccccc3C1c1cccc[n+]12` (stereo not given) was tested, and the survivor count [6] was 5 of 6, the survivor count [7] was 1 of 6 (2×) and the survivor count [8] was 0 of 6 and 1 of 6.
